US20140314904A1, “PRE-SLAUGHTER DIET INCLUDING METHIONINE” (ADISSEO FRANCE S.A.S., priority 2011, published 2014)
Some of these results come from one statement about several compounds together.

System: slaughter pigs
Experiment: Warner-Bratzler shear force (WBSF), instrumental hardness
Assay type: in vivo, pig
Details: within each packaging system (vacuum, MAP)
Method: In Example 1 twenty-one pigs were randomly assigned to one of three feeding groups (n=7). The control group received a standardized diet only. The DLM and HMTBA groups received the standardized diet plus a high-methionine supplement (either DLM (i.e. […] At 48 h post mortem, 3 cm thick pork chops were either vacuum packed or sealed in a modified atmosphere (MA; 80% O2) and stored for an additional 7 days at 2° C. Instrumental hardness was measured using the Warner-Bratzler shear force (WBSF; Newton) method. Protein oxidation was measured as the loss of free thiol groups in proteins (nmol thiol per mg protein) using Ellman's reagent. Lipid oxidation was measured as the increase in 2-thiobarbituric acid reactive substances (TBARS; mg malondialdehyde per kg meat). Twenty-one slaughter pigs ([Yorkshire×Swedish Landrace]×Hampshire) were raised on a commercial diet. Pigs were randomly assigned to one of three groups (n=7). […] Pork chops were cut perpendicular to the long axis of each LD muscle. Six 3 cm thick pork chops was sliced from each LD. Three were vacuum packed and three were packed in a high-oxygen modified atmosphere. […] Instrumental hardness was measured using the Warner-Bratzler shear force (WBSF) method. […] The temperature rise was monitored for one sample and the remaining samples were given the time to reach an internal temperature of 75° C. plus five minutes. […]

CSCCC(O)C(=O)O (racemic) [HMTBA, 2-hydroxy-4-(methylthio) butanoic acid]
WBSF values lower than the Control group: > 8 Newton
